For 59 molecules, cell number change and AC50 results are on record in PubChem BioAssay AID2685 (National Center for Advancing Translational Sciences (NCATS), 2010).

Each structure is given as a SMILES string. Some of the results follow. Further columns of the screen follow, without active or inactive calls. The list favours compounds with an active or inconclusive main result. Words in brackets tell the shape of the fitted curve; partial curves, single points and poor fits give uncertain potencies.

The nature of the assay: qHTS Assay for Lipid Storage Modulators in Drosophila S3 Cells.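 For cell number change: cells counted by Cell Tracker Red CMTPX staining in the red channel.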 The following applies: BODIPY lipid droplet fluorescence, 18-24 h; for cell number change: measured here: cell count max response, cells fed with added oleic acid. The essentials: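 Laser-scanning cytometry quantifies lipid droplet accumulation (500–530 nm total intensity; droplet/cell object ratio) in oleic acid-fed (400 uM added) Drosophila S3 cells treated with a concentration series. 20 uM Triacsin C defined 100% inhibition.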

[1] abbreviates: measured here: cell number channel AC50, cells fed with added oleic acid.
[2] abbreviates: measured here: lipid fluorescence (Fed channel) AC50, cells fed with added oleic acid.

For orientation: AC50 means the concentration at which the activity in the assay is half-maximal. Read a high AC50 as activity only at high concentration. As for `Cc1ccc(Sc2ccc(C(=O)NC(C)C)cc2[N+](=O)[O-])cc1`, the cell number change is -16.2%. The AC50 under setting [1] is 0.13 µM [falling, full curve, poor fit]. The AC50 under setting [2] was 25.9 µM [rising, single point].

Consider `Cc1cc(NC(=O)C(C)Oc2ccc(C(C)(C)C)cc2)no1` (stereo not given), for which the cell number change was 9.48%. For the same molecule, the AC50 under setting [2] is 29.1 µM [rising, single point].

Regarding `Cc1ccc(C(=O)N/C(=C\C=C\c2ccccc2)C(=O)NCc2ccco2)cc1`, the cell number change amounted to 28.6%.

Regarding `CSc1ncc(S(=O)(=O)c2ccccc2)c(=O)[nH]1`, the cell number change was -52.6%. For the same molecule, the AC50 under setting [1] was 18.4 µM [falling, single point]. Further, the AC50 under setting [2] is 18.4 µM [falling, single point].

As to `CNC(=O)CN(C)S(=O)(=O)c1ccc(OC)c(Cl)c1`, the cell number change was -17.6%. Under setting [1], the AC50 was 0.291 µM [falling, partial curve, poor fit]. Moreover, the AC50 under setting [2] is 4.11 µM [falling, full curve, poor fit].

As to `COc1ccc(-c2nc(-c3ccccc3)no2)c(OC)c1`, under setting [2], the AC50 was 6.51 µM [rising, single point].

As to `CC(=O)c1sc2nc(SCC(=O)NCCc3ccccc3)[nH]c(=O)c2c1C`, the cell number change is 1.47%. Moreover, the AC50 under setting [2] is 0.58 µM [falling, full curve, poor fit].

As to `Cc1ccc(S(=O)(=O)NNC(=O)Nc2ccc(C)c(C)c2)c(C)c1`, the cell number change was -3.47%. In addition, under setting [2], the concentration at half-maximal activity (AC50) was 2.31 µM [rising, full curve, poor fit].

As to `CCc1cc(=O)oc2cc(C)cc(OCC(=O)C(C)(C)C)c12`, the cell number change was -22.8%.

With `CSc1ccccc1NC(=O)c1ccc([N+](=O)[O-])cc1`, the cell number change is -19.8%. For the same molecule, under setting [2], the AC50 is 25.9 µM [rising, single point].

As to `CSc1cccc(NC(=O)c2sc3nc4n(c(=O)c3c2C)CCC4)c1`, the cell number change worked out at 20.1%. Besides, the AC50 under setting [1] was 2.91 µM [falling, single point]. In addition, the AC50 under setting [2] is 2.31 µM [falling, full curve, poor fit].

As to `CCOC(=O)c1ccc(NC(=S)N(CCN2CCCCCC2)Cc2cccs2)cc1`, the AC50 under setting [1] is 6.51 µM [rising, single point].

With `Cc1ccc(C(=O)CCC(=O)NC2=NCCS2)cc1`, the cell number change was 42.1%. Further, the AC50 under setting [1] was 16.4 µM [rising, single point]. Besides, the AC50 under setting [2] is 0.13 µM [rising, full curve, poor fit].

In the case of `Cc1ccc(-c2cc(C(=O)Nc3sc4c(c3C(=O)NCc3ccco3)CCC4)[nH]n2)c(O)c1`, the cell number change came out at 38.2%. Also, the AC50 under setting [1] is 0.92 µM [rising, full curve].

`O=C(O)CCCC(=O)NS(=O)(=O)c1ccc(Cl)cc1`: the cell number change is -62.2%. The AC50 under setting [1] was 13 µM [falling, partial curve, poor fit]. The AC50 under setting [2] is 8.2 µM [falling, partial curve].

Consider `Cc1cc(C)c(S(=O)(=O)Nc2ccccc2C(=O)N2CCOCC2)c(C)c1`, for which the AC50 under setting [2] was 18.4 µM [falling, partial curve, poor fit].

On to `COC(=O)c1c(C)oc(C)c1S(=O)(=O)NC(c1ccccc1)c1ccccc1`, for which the cell number change was determined as 13.2%. In addition, the AC50 under setting [1] is 0.231 µM [falling, full curve, poor fit].

In the case of `Cc1ccc(C(=O)COC(=O)c2ccc3c(c2)C(=O)N(c2cccc4ncccc24)C3=O)cc1`, the cell number change was -23.6%. Under setting [2], the AC50 was 32.6 µM [falling, single point].

For the molecule `COc1cccc(CNS(=O)(=O)c2c(C(=O)N3CCCC3)c(C)n(C)c2C)c1`, the cell number change is -1.18%.

Turning to `Cc1ccc(OCC(=O)Nc2ccc(-n3cnnn3)cc2)c(C)c1`, the cell number change was 50.6%. Also, the AC50 under setting [1] was 11.6 µM [rising, partial curve].

`COC(=O)Cn1c(=O)c(C)nc2ccccc21`: the cell number change is -10.3%.

`CCOC(=O)C1CCN(c2nc3ccccc3nc2C(C#N)C(=O)OC(C)C)CC1` (stereo not given): the cell number change was determined as 1.37%. Also, the AC50 under setting [2] was 32.6 µM [rising, single point].

Regarding `COc1ccc(Cl)cc1C(=O)NNC1CC(=O)N(Cc2ccc(Cl)cc2)C1=O` (stereo not given), the cell number change turned out to be 5.26%.

Regarding `Cc1csc(NC(=O)Nc2ccccc2[N+](=O)[O-])n1`, the cell number change is 6.37%. Further, the AC50 under setting [1] is 1.46 µM [falling, partial curve].

As for `N#Cc1c(Nc2cccc(F)c2)sc2c(O)cc(=O)[nH]c12`, the cell number change was -0.88%. Further, the AC50 under setting [2] is 2.59 µM [rising, partial curve].

Consider `COC(=O)Nc1ccc(S(=O)(=O)N2CCN(C)CC2)cc1`, for which the cell number change was -12.6%. The AC50 under setting [1] is 0.58 µM [falling, full curve, poor fit]. Under setting [2], the AC50 was 0.291 µM [falling, full curve].

As for `Cc1c(C(=O)Nc2ccccc2F)sc2nc3n(c(=O)c12)CCC3`, the cell number change was -79.2%. Moreover, the AC50 under setting [1] was 13 µM [falling, partial curve]. Moreover, under setting [2], the AC50 was 5.17 µM [falling, full curve].

Consider `C/C=C/C(=O)OCc1csc(CC(=O)Nc2ccccc2C)n1`, for which the cell number change came out at 14.1%.

In the case of `CC1C(=O)N2CCCc3cc(S(=O)(=O)NCc4ccc(Cl)cc4)cc1c32` (stereo not given), the cell number change amounted to 17.2%.

For the molecule `Cc1nn(Cc2ccccc2)c(C)c1/C=N/NC(=O)c1ccccc1O`, the cell number change was found to be 24.4%.

With `CN(Cc1ccon1)C(=O)C1CCC(=O)N(Cc2ccc(Cl)cc2)C1` (stereo not given), the cell number change came to 26.2%. Besides, the AC50 under setting [2] is 32.6 µM [rising, partial curve].

For `Cn1c(N2CCOCC2)nc(-c2ccccc2)c1-c1ccccc1`, the cell number change is 43.4%. Under setting [1], the AC50 is 14.6 µM [rising, single point].

As for `Cc1ccnn1CC(=O)N/N=C/c1ccc2c(c1)OCO2`, the cell number change is 0.563%. Also, the AC50 under setting [2] is 0.00731 µM [rising, full curve, poor fit].

As to `CCn1c(C)nc2cc(C(=O)NNC(=O)CCC3CCCCC3)ccc21`, the cell number change was -1.05%. Also, the AC50 under setting [2] was 0.164 µM [falling, partial curve, poor fit].

Turning to `Cc1ccc(NC(=S)NNC(=S)Nc2ccc(C)cc2C)cc1`, the cell number change was -13.9%. Moreover, the AC50 under setting [2] was 29.1 µM [falling, single point].

Consider `CC(=O)N1N=C(c2ccccc2)CC1c1cn(C)c2ccccc12` (stereo not given), for which the AC50 under setting [1] was 6.51 µM [rising, partial curve, poor fit].

As to `Cc1cc(NC(=O)c2cc(-c3ccc(OC(C)C)cc3)nc3ccccc23)no1`, under setting [2], the AC50 was 29.1 µM [rising, single point].

As for `CCOC(=O)N1CCN(C(=O)Nc2ccc(Cl)cc2)CC1`, the AC50 under setting [1] is 2.31 µM [rising, partial curve].

For `CCOc1ccc(Cn2nnc(C(=O)NCCc3ccc(Cl)cc3)c2N)cc1`, the AC50 under setting [2] is 0.146 µM [falling, full curve, poor fit].

For the molecule `CCC(CC)NC(=O)CO/N=C/c1ccccc1OC(F)F`, under setting [2], the AC50 is 2.59 µM [rising, partial curve].

Turning to `O=c1c2ccc([N+](=O)[O-])cc2ncn1CCOc1ccccc1`, the cell number change was -1.29%. The AC50 under setting [2] was 16.4 µM [falling, single point].

In the case of `O=C(N/N=C/c1cccc(OC(=O)N2CCOCC2)c1)c1cccs1`, the cell number change was -30.1%. Besides, the AC50 under setting [1] was 18.4 µM [falling, single point]. In addition, under setting [2], the AC50 is 10.3 µM [falling, partial curve].

As to `Cc1ccc(S(=O)(=O)N=S(CC2CC2(Cl)Cl)CC2CC2(Cl)Cl)cc1` (stereo not given), the cell number change is -45%. The AC50 under setting [1] was 29.1 µM [falling, single point].

For `Clc1ccc(C2[C@H]3CN(Cc4ccc(-c5ccccc5)cc4)[C@H](c4ccccc4)C34CC2(c2cccnc2)C4)cn1` (stereo not given in full), the cell number change was 32.3%. Moreover, the AC50 under setting [1] was 0.13 µM [rising, full curve]. For the same molecule, under setting [2], the AC50 was 0.116 µM [rising, full curve].

`O=C(Cn1cc(/C=C\[N+](=O)[O-])c2ccccc21)Nc1ccccc1`: the cell number change is -24.6%. The AC50 under setting [2] is 9.2 µM [falling, partial curve, poor fit].

As for `Cc1nc(SCc2ccccc2)c2ccsc2n1`, the cell number change was -21.2%.

Turning to `O=C(CC1CCC1)NC(c1ccccc1)c1ccccc1`, the cell number change was -31.1%. In addition, the AC50 under setting [1] is 29.1 µM [falling, single point].

Take `Cc1ccc(-n2c(N)c(C(=O)N3CCOCC3)sc2=S)cc1`: the AC50 reads like this: under setting [1], 6.51 µM [falling, single point]; under setting [2], 6.51 µM [falling, single point].

Consider `O=C(c1ccnc(Cl)c1)N1CCCC(Nc2ccc(F)cc2)C1` (stereo not given), for which the cell number change was 0.232%.

On to `O=c1cc(N2CCCCC2)c(-c2ccccc2)nn1Cc1ccc(Cl)cc1`, for which the cell number change was -0.743%. Moreover, under setting [2], the AC50 is 6.51 µM [rising, single point].

`COc1ccc(C(C)C)cc1S(=O)(=O)NCCCn1ccnc1`: the cell number change was 19.4%. Besides, the AC50 under setting [2] is 29.1 µM [rising, single point].

On to `CC1CCCN(C(=O)c2ccc(CNc3c(N4CCCCC4)c(=O)c3=O)cc2)C1` (stereo not given), for which the cell number change was determined as 17.3%. The AC50 under setting [1] is 2.31 µM [rising, single point]. Besides, under setting [2], the AC50 is 13 µM [rising, partial curve].

Regarding `COc1ccc(Oc2nnc(C)c3ccccc23)cc1`, the cell number change stood at 100%. In addition, the AC50 under setting [1] was 6.51 µM [rising, partial curve]. Further, the AC50 under setting [2] is 16.4 µM [rising, partial curve].

In the case of `CN1CCN(c2ccc(NC(=O)c3ccc4ccccc4c3)cc2)CC1`, the cell number change is -5.67%. For the same molecule, under setting [2], the AC50 was 0.461 µM [rising, single point].

Consider `O=C1/C(=C\c2cccnc2)Sc2ccccc21`, for which the cell number change was -21.2%. For the same molecule, under setting [2], the AC50 was 23.1 µM [falling, partial curve, poor fit].

As to `S=c1[nH]nc(-c2ccc3ccccc3n2)n1-c1cc(Cl)cc(Cl)c1`, the cell number change was -38.5%. Besides, the AC50 under setting [1] was 29.1 µM [falling, single point]. For the same molecule, the AC50 under setting [2] is 29.1 µM [falling, single point].

With `COc1ccc(NC(=O)CN(c2ccc(C)cc2)S(=O)(=O)c2c(C)nn(C)c2C)cc1OC`, the cell number change was 21.8%. Further, the AC50 under setting [1] was 1.84 µM [rising, partial curve]. Also, under setting [2], the AC50 is 2.31 µM [rising, partial curve].

Turning to `COC(=O)CSc1nc(N)c2c3c(sc2n1)CCCC3`, the cell number change was -8.87%. Besides, the AC50 under setting [2] is 29.1 µM [rising, single point].

Regarding `CCOC(=O)C1=C(Cc2ccc(C)cc2)C(=O)c2ccccc2C1=O`, the cell number change is -98.1%. Also, the AC50 under setting [1] was 29.1 µM [falling, single point]. For the same molecule, under setting [2], the AC50 was 14.6 µM [falling, partial curve].
